According to patent US11434289B2, “Anti-GPR20 antibody and anti-GPR20 antibody-drug conjugate” (DAIICHI SANKYO COMPANY, LIMITED, priority 2017, dated 2022):
At least one structure is not confirmed: it was looked up by name or label, or the drawing left a doubt.

Legend:
[1] = system: GIST074; experiment: Antitumor effect in subcutaneously GIST074-transplanted nude mouse models (regorafenib-unresponsive patient tumor); assay type: in vivo, BALB/c nude mice; settings: orally once a day; imatinib 90, sunitinib 30, regorafenib 4 mg/kg; FIG. 36
Description: The antitumor effects of the antibody-drug conjugates were evaluated using animal models derived from immunodeficient mice by the transplantation of human gastrointestinal stromal tumor-derived cells. Five- to 6-week-old female BALB/c nude mice (CAnN.Cg-Foxnlnu/CrlCrlj, Charles River Laboratories Japan Inc.) were acclimatized for 4 to 7 days under SPF conditions before use in the experiment. The mice were fed with a sterilized solid diet (FR-2, Funabashi Farms Co., Ltd) and given sterilized tap water (which had been prepared by adding a 5 to 15 ppm sodium hypochlorite solution to tap water). The longest diameter and the shortest diameter of the transplanted tumor were measured once or twice a week using electronic digital calipers (CD-15CX, Mitutoyo Corp.), and the volume of the tumor was then calculated according to the following equation. Tumor volume (mm^3)=½×Longest diameter (mm)×[Shortest diameter (mm)]^2
[…] ABS buffer was administered in the same manner as above to a control group (vehicle group). Five or six mice per group were used in the experiment. […]

[2] = system: human gastrointestinal stromal tumor cell line GIST430/654; experiment: Antitumor effect and combined use with sunitinib in GIST430/654-transplanted nude mouse models (imatinib resistance mutation V654A in KIT); assay type: in vivo, BALB/c nude mice; settings: orally once a day; imatinib 150, sunitinib 40 mg/kg; FIG. 37

SMILES: CCN(CC)CCNC(=O)c1c(C)[nH]c(/C=C2\C(=O)Nc3ccc(F)cc32)c1C [sunitinib]
- tumor growth [1]: tumor growth was not completely suppressed
- tumor growth [2]: suppression of tumor growth was observed
